The other results are listed elsewhere or left out.

Sequences of proteins named here, by UniProt entry; tags and fusion partners are left off. A change or cut given only in a name is not applied to a line headed by its entry.
UniProt Q96RR4, whole entry, looked up: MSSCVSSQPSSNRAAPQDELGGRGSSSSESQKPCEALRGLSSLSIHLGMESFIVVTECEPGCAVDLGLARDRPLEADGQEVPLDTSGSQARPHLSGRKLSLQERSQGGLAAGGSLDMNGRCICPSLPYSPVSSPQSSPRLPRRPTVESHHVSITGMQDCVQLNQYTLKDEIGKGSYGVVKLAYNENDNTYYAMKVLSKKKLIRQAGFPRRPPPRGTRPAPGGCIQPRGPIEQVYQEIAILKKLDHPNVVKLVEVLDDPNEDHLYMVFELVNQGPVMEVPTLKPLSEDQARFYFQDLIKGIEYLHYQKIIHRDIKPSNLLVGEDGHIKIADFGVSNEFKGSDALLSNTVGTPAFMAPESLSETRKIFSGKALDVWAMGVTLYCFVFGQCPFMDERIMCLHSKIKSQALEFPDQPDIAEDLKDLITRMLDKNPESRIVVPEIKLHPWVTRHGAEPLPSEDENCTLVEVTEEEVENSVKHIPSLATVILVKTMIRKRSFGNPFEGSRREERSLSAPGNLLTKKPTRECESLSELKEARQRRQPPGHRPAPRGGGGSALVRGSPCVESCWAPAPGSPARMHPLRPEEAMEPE
UniProt Q9H9S4: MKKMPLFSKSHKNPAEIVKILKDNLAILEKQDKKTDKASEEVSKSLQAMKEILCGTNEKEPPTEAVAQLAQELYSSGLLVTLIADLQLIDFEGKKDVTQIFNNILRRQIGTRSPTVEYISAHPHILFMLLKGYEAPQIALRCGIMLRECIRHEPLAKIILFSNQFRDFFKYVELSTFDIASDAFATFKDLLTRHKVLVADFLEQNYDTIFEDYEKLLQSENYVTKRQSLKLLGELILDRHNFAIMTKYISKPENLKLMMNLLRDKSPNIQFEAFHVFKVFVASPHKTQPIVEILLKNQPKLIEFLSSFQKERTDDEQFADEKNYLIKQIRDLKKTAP
UniProt Q8WUR7: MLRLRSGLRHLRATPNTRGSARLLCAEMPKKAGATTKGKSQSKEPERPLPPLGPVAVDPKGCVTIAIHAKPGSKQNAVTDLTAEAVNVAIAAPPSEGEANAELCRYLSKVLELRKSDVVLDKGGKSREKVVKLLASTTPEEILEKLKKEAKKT
UniProt P04003: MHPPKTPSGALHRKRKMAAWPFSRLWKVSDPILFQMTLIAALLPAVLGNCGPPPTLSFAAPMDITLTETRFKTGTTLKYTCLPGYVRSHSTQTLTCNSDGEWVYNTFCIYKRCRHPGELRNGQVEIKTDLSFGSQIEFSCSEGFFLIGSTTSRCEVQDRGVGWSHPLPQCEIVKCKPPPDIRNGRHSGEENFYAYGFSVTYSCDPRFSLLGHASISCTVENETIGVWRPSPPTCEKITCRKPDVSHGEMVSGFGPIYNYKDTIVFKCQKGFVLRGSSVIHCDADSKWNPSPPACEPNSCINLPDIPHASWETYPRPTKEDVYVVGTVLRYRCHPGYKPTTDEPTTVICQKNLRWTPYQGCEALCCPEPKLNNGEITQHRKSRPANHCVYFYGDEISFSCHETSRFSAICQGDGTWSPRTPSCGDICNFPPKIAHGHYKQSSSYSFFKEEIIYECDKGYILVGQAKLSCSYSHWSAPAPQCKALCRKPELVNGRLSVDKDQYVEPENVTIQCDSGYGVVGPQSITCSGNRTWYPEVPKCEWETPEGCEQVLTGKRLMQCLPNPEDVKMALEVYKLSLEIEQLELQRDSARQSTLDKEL
UniProt Q14012: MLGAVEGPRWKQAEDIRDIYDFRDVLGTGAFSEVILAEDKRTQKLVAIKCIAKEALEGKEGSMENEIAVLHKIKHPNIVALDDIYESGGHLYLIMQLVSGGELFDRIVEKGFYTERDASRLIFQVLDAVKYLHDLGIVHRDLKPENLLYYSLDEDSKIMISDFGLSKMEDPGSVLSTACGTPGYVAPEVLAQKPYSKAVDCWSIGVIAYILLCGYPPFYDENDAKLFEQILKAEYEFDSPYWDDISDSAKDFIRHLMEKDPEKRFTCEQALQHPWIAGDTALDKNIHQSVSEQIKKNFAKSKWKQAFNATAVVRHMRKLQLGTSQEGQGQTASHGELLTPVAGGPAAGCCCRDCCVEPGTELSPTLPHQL
UniProt Q9P1Z2: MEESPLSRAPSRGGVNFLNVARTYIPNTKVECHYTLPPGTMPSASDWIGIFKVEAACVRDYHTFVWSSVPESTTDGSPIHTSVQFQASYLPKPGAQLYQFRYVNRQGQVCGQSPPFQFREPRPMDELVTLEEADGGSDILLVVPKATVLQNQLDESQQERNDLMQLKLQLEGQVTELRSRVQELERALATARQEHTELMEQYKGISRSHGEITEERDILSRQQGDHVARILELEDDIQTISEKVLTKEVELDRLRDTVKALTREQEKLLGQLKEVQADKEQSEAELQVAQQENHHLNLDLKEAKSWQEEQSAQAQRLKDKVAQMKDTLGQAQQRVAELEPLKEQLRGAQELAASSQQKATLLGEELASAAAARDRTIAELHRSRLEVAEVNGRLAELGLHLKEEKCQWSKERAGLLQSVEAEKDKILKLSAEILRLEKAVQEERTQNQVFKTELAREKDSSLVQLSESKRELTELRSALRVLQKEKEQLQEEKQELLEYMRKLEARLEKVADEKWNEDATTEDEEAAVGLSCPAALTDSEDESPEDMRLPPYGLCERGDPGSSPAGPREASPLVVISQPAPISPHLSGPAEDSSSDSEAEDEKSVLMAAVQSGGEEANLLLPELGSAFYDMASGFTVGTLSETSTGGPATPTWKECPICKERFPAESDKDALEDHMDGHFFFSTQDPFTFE
UniProt Q9BRJ6: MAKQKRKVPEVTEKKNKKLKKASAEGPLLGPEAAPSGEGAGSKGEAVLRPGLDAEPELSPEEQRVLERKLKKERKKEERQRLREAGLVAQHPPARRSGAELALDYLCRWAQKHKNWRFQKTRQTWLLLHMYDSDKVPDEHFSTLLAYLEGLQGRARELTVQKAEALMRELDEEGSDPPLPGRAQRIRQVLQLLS
UniProt Q07021: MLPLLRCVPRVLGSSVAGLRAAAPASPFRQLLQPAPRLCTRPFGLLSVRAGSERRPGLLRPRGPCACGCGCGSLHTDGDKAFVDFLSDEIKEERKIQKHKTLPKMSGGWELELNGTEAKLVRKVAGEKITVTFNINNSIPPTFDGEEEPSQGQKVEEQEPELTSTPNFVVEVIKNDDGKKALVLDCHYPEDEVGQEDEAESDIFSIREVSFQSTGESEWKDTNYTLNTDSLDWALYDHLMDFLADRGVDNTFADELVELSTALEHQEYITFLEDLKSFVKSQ
UniProt Q8N1A6: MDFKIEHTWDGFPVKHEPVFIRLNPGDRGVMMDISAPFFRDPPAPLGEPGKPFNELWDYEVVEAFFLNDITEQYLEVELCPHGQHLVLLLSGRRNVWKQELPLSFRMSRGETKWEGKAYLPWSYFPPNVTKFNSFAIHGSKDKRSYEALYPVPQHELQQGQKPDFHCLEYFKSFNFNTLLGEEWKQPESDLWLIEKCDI
UniProt Q9BSU1: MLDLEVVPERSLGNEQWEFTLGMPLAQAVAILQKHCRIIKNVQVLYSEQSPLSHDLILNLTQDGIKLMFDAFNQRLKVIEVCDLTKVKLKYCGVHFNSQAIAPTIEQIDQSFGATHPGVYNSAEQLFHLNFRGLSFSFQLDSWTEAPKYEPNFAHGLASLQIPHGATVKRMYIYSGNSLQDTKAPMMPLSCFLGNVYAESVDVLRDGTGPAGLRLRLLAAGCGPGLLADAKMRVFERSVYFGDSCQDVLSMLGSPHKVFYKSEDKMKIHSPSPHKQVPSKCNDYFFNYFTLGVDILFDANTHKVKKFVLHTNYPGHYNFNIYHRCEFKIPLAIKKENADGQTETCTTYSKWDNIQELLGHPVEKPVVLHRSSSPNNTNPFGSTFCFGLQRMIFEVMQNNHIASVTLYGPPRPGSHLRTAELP
UniProt Q96GV9: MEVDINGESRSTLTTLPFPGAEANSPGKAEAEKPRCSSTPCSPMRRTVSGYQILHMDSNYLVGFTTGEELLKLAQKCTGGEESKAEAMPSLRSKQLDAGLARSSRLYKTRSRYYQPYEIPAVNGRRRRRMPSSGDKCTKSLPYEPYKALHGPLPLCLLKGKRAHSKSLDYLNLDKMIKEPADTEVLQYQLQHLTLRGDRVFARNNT
UniProt Q96GQ5: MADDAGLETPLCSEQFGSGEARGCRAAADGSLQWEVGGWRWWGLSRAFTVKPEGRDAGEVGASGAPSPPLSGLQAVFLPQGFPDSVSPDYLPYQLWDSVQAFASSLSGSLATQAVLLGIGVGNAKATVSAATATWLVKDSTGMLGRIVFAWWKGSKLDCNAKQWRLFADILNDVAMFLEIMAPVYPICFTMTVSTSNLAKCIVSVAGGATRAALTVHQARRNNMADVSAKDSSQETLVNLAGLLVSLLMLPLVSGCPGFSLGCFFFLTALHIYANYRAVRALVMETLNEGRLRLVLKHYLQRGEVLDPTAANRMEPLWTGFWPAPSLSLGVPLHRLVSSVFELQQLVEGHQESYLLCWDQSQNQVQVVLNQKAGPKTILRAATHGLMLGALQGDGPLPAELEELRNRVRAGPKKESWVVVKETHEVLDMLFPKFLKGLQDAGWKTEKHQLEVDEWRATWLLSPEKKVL
UniProt Q9H7E9: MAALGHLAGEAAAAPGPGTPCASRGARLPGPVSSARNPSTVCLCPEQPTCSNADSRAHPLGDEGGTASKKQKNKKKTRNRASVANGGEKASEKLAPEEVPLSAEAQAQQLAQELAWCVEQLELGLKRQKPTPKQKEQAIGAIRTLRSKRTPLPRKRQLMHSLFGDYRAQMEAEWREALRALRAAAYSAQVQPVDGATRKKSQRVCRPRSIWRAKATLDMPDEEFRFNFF
UniProt Q6P1S2: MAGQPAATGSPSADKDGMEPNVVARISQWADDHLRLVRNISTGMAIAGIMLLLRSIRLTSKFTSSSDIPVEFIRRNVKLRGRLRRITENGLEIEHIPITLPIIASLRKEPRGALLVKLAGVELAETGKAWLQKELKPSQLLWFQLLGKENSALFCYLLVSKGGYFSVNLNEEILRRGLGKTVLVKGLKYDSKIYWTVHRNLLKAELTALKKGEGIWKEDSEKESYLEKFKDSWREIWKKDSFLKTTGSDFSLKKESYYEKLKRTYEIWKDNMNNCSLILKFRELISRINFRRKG
UniProt Q9BUW7: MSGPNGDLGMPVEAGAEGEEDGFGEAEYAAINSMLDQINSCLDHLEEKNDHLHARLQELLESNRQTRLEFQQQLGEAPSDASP
UniProt Q9H3J6: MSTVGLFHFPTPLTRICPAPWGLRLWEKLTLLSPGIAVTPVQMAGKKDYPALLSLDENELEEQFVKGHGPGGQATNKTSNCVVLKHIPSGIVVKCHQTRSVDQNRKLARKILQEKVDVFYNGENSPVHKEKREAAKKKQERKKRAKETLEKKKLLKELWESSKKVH
UniProt Q13554, whole entry, looked up: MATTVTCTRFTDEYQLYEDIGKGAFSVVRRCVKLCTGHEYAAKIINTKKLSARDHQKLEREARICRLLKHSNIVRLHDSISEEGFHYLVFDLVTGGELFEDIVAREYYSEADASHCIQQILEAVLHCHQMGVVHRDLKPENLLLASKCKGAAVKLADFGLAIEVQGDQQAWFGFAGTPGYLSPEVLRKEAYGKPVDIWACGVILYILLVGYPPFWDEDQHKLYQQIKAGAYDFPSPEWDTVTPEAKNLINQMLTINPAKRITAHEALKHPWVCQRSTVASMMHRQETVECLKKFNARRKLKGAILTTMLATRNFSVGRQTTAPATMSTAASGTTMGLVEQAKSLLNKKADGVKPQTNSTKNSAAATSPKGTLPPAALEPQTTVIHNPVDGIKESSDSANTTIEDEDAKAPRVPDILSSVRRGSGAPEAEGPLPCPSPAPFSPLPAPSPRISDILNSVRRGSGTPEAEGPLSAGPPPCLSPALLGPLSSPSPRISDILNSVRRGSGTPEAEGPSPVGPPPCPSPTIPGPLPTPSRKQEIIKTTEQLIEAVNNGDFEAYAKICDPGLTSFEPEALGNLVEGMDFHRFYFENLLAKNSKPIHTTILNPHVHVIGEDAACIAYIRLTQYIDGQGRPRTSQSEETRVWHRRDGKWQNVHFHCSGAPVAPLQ
UniProt O00478: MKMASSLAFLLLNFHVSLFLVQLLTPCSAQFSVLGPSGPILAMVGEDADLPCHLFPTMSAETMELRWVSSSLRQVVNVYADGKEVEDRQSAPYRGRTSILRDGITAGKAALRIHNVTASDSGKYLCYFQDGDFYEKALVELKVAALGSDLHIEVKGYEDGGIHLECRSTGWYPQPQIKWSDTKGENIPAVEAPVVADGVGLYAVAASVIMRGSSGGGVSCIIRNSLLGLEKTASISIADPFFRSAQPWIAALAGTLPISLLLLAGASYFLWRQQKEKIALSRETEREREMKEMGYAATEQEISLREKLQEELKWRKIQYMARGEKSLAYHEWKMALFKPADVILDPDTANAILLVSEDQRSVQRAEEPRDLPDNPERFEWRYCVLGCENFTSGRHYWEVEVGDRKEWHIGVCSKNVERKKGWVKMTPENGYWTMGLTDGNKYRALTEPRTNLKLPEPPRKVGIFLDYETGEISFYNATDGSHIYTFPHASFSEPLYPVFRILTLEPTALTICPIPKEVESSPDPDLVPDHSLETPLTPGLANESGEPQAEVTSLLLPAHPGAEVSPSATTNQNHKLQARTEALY

Compound in the assay: O=C1NC(=O)C(c2cnc3ccccn23)=C1c1cn2c3c(cc(F)cc13)CN(C(=O)N1CCCCC1)CC2
Put plainly: log2 fold change, soluble protein after heating vs DMSO (PISA); higher = thermal stabilisation; K562 lysate, 10 uM; active = over 0.2 and 3.5 SD of the protein, either way, in both replicates (recomputed). The essentials:
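A 30 min treatment with 10 μM compound was applied to crude K562 extract at 1 mg/mL protein in PBS pH 7.4 with 1 mM MgCl2. Heating for 3 min spanned 48°C-58°C, after which aliquots were pooled, adjusted to 0.5% NP-40 at 4°C and spun at 21,000xg for 90 min. TMTpro 16plex LC-MS/MS of the supernatant, with channel sums equalised, gave values recorded as log-two fold change in thermal stability against solvent controls, from duplicates.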
C1D (UniProt Q13901): the log2 fold change was inactive: 0.074.
BUB1B isoform 3 (UniProt O60566): the log2 fold change was inactive: 0.006.
On to C12orf57 (UniProt Q99622), for which the log2 fold change was inactive: -0.105.
In the case of CAB39 (UniProt Q9Y376), the log2 fold change was inactive: -0.013.
As for CAMKK2 (UniProt Q96RR4), the log2 fold change is inactive: -0.02.
The result for CAB39L (UniProt Q9H9S4) reads inactive: 0.112.
Take C15orf40 (UniProt Q8WUR7): the log2 fold change is inactive: 0.007.
The result for C19orf53 (UniProt Q9UNZ5) reads inactive: -0.002.
With C4BPA (UniProt P04003) the figure was inactive: -0.127.
The result for CAMK1 (UniProt Q14012) reads inactive: 0.062.
CALCOCO1 (UniProt Q9P1Z2): the log2 fold change was inactive: -0.001.
As to C7orf50 (UniProt Q9BRJ6), the log2 fold change was inactive: -0.044.
The result for C1QBP (UniProt Q07021) reads inactive: 0.001; that for C4orf33 (UniProt Q8N1A6), inactive: -0.002.
With C16orf70 (UniProt Q9BSU1) the figure was inactive: -0.015.
The result for C19orf25 (UniProt Q9UFG5) reads inactive: 0.127.
Take BZW2 (UniProt Q9Y6E2): the log2 fold change was inactive: -0.013.
With C5orf30 (UniProt Q96GV9) the figure was inactive: 0.102; with C16orf58 (UniProt Q96GQ5), inactive: -0.001.
With C17orf80 (UniProt Q9BSJ5) the figure was inactive: 0.118; with C8orf33 isoform 2 (UniProt Q9H7E9), inactive: 0.003.
Consider C1orf167 isoform 2 (UniProt Q5SNV9), for which the log2 fold change is inactive: -0.124.
On to CAPNS1 (UniProt K7ES78), for which the log2 fold change is inactive: 0.141.
With CAPZA1 (UniProt P52907) the figure was inactive: -0.012.
For CA8 (UniProt P35219), the log2 fold change is inactive: 0.028.
On to CAMSAP1 isoform 3 (UniProt Q5T5Y3), for which the log2 fold change is inactive: -0.031.
The result for C12orf60 (UniProt Q5U649) reads inactive: 0.024.
For C3orf33 (UniProt Q6P1S2), the log2 fold change was inactive: 0.023.
With C9orf16 (UniProt Q9BUW7) the figure was inactive: -0.083; with C12orf65 (UniProt Q9H3J6), inactive: -0.027.
Consider C1GALT1 (UniProt Q9NS00), for which the log2 fold change is inactive: -0.034.
The result for CAMK2B (UniProt Q13554) reads inactive: 0.056; that for C4A (UniProt P0C0L4), inactive: -0.034; that for BTN3A3 (UniProt O00478), inactive: -0.052.
With CALB1 (UniProt P05937) the figure was inactive: -0.005.

The values above are taken from the supplement of paper PMC10849652.
